# Where “and” joins values, the source holds several entries; their conditions need not be identical. Identical values can stand only once. The campaign covered roughly 390,000 compounds. About 760 (0.19%) were called active. Inconclusive means that the source gave no clear call. Such entries were picked first, then a sample of the others. Calls follow the shape of the dose curve; as a rule, active = well fitted inhibition curve with a large enough effect; inconclusive = small, poorly fitted or top-dose-only effect; inactive = flat fitted curve, though single readings scatter. Where the call is inconclusive, the potency comes from a doubtful curve fit.
# Assay: qHTS for Inhibitors of Vif-A3F Interactions: qHTS; also: nearly all actives have a fitted effect of over 65% in size; as to activity, negative = active: % of control where 0% means no effect
# Settings: HeLa A3F-eYFP + Vif (tagged APOBEC3F with the HIV-1 protein that degrades it), YFP fluorescence increase; series mostly up to 46.1 µM; activity, negative = active: at the top concentration
# Text: The recent discovery and characterization of host restriction factors, which provide a potent defense to invading retroviruses, has provided new targets for antiviral drug development. APOBEC3G (A3G) and APOBEC3F (A3F) are potent cytidine deaminases that block HIV-1 replication; HIV-1 expresses the Vif protein, which counteracts A3G and A3F by binding to them and inducing their proteasomal degradation. The Vif-A3G and Vif-A3F interactions provide two potential targets for development of small molecules which can interfere with the ability of Vif to degrade A3G or A3F. […] To identify inhibitors that can interfere with Vif mediated degradation of A3G and A3F, we have developed Hela cell lines that stably express A3G or A3F tagged with eYFP at the C-terminal end (A3G-eYFP or A3F-eYFP, respectively) and Vif. In the absence of an inhibitor, Vif induces degradation of A3G-eYFP and A3F-eYFP, and the cells are not fluorescent. In the presence of an inhibitor, it is expected that Vif will be unable to degrade A3G-eYFP and/or A3F-eYFP, resulting in an increase in yellow fluorescence. In this assays Vif A3F was screened against the Molecular Library Small Molecule Repository (MLSMR). NIH Chemical Genomics Center [NCGC] NIH Molecular Libraries Probe Centers Network [MLPCN] MLPCN Grant: MH093245 Assay Submitter (PI): Vinay Pathak, National Cancer Institute
# 5 uL of 700 cells/well of A3F-YFP cells are dispensed into black, clear bottom plates. The plates are incubated overnight at 37 deg C. 23 nL of compounds are added by pintool. The plates are incubated overnight at 37 deg C and then read on the TTP Acumen (Ex 488/ Em 500-530).
# Potency is read from the fitted curve at half-maximal effect.
SMILES,"activity, negative = active",Potency
Cc1occc1-c1nnc(SCC(=O)Nc2nc(C(C)(C)C)cs2)o1,inactive: -2.08%,–
CCN(C(=O)CSc1nc2n[nH]c(C)c2c(=N)n1-c1ccc(Cl)c(C)c1)c1cccc(C)c1,inactive: -0.232%,–
Nc1ccc2c(c1)C(=O)c1cc(Cl)c(Cl)cc1-2,inactive: -7.29%,–
N#Cc1cccc(NC(=O)c2cc3c(s2)-c2ccc(Cl)cc2SC3)c1,–,"inconclusive: 7.08 µM [inhibitor, full curve]"
Cc1ncc([N+](=O)[O-])n1CC(=O)Nc1ccc(OC(F)(F)Cl)cc1,–,"inconclusive: 28.2 µM [inhibitor, single point]"
O=C(O)CSc1cc(NS(=O)(=O)c2ccc(Cl)cc2)c2ccccc2c1O,–,"inconclusive: 6.31 µM [inhibitor, partial curve, poor fit]"
Cc1cc2c(c(=O)o1)C(CCC1CCCCC1)C(C#N)=C(N)O2 (stereo not given),–,"inconclusive: 25.1 µM [inhibitor, single point]"
Cc1ccccc1-n1c(SCc2cccc(F)c2)nc2[nH]ncc2c1=O,inactive: -1.23%,–
CC(=O)Nc1sc2c(c1-c1nc3ccccc3s1)CN(C(C)C)CC2,–,active: 10 µM
O=C(CSCc1cnn(-c2ccccc2)c1-n1cccc1)NCC1CCCO1 (stereo not given),–,"inconclusive: 6.31 µM [inhibitor, single point]"
O=C(OCn1ncc(Br)c(Br)c1=O)c1ccccc1Cl,inactive: 4.79%,–
CC(=O)O[C@H]1C(=O)[C@@]2(C)[C@H]([C@H](OC(=O)c3ccccc3)[C@]3(O)C[C@H](OC(=O)[C@H](O)C(NC(=O)c4ccccc4)c4ccccc4)C(C)=C1C3(C)C)[C@]1(OC(C)=O)CO[C@@H]1C[C@@H]2O (stereo not given in full),inactive: -12.5%,–
COc1ccc(NC(=O)CCc2nnc3n(CC(C)C)c(=O)c4ccccc4n23)cc1,inactive: 2.01%,–
CN1CCN(NC(=O)c2cc(-c3ccc(Br)s3)nc3ccccc23)CC1,–,"inconclusive: 35.5 µM [inhibitor, single point]"
CC(C)[C@H](CN1CCC[C@H]1CN1C(N)=NC[C@@H]1Cc1ccccc1)N1C[C@@H](Cc2ccccc2)N(CCc2ccc(Cl)c(Cl)c2)C1=N,–,"inconclusive: 35.5 µM [inhibitor, single point]"
O=C(NC(=S)N(CCO)Cc1ccccc1)c1ccc(S(=O)(=O)N2CCCC2)cc1,–,"inconclusive: 35.5 µM [inhibitor, single point]"
CCOC(=O)c1ccc(N2C(=O)C3C(C2=O)C(C(=O)c2ccc(Cl)cc2)N2CCCC32)cc1 (stereo not given),–,"inconclusive: 11.2 µM [inhibitor, partial curve, poor fit]"
COc1ccc2ncc3c(-c4ccc(C)c(C)c4)nn(CC(=O)NC4CCCC4)c3c2c1,–,"inconclusive: 3.16 µM [inhibitor, single point]"
Cc1ccc2nc(NCc3ccc(F)cc3)c3nncn3c2c1,–,"inconclusive: 35.5 µM [inhibitor, single point] and inconclusive: 22.4 µM [inhibitor, single point]"
Cc1ccc(-n2c([S-])c(C(=O)Nc3ccc(OC(F)F)cc3)[n+]3ccc(C(=O)NCCO)cc23)cc1C,–,"inconclusive: 10 µM [inhibitor, single point]"

SMILES,"activity, negative = active",Potency
CCOc1ncccc1C(=O)NNC(=O)c1cccc(S(=O)(=O)Nc2ccc(OC)cc2)c1,–,"inconclusive: 3.16 µM [inhibitor, partial curve, poor fit]"
COC(=O)Nc1nc(C)c(C(=O)c2ccccc2)s1,inactive: 0.177%,–
Cc1ccc(C)c(Cn2c(=O)n(CCCC(=O)NCc3ccco3)c(=O)c3ccccc32)c1,inactive: 3.25%,–
CSc1c[n+]2c(n1C)CCC2,inactive: -4.81%,–
CCCCn1c(O)c(/C=C/C=C/C=Nc2ccccc2)sc1=S,–,"inconclusive: 10 µM [inhibitor, partial curve, poor fit]"
Cc1cc(NC(=O)c2cc3cccc([N+](=O)[O-])c3[nH]2)ccc1F,–,"inconclusive: 17.8 µM [inhibitor, partial curve, poor fit]"
COc1cccc(/C=N/NC(=S)NC2CC3CC2C2C=CCC32)c1O (stereo not given),–,"inconclusive: 10 µM [inhibitor, partial curve, poor fit]"
CCn1c(SCC(=O)NCc2ccco2)nnc1-c1c[nH]c2ccccc12,–,"inconclusive: 2.24 µM [inhibitor, partial curve, poor fit]"
COc1cccc(C#Cc2c(C=O)n(C)c3ccccc23)c1,inactive: -26.4%,–
O=C(C1=C(O)C(=O)N(c2nccs2)C1c1ccccc1)c1cc2ccccc2o1 (stereo not given),–,"inconclusive: 2.24 µM [inhibitor, partial curve, poor fit]"
CCOc1cccc(NC(=O)CSc2nncn2N)c1,–,"inconclusive: 6.31 µM [inhibitor, single point]"
CN(C(=S)NC1CCCCC1)C1(c2ccccc2Cl)CCCCC1=O (stereo not given),–,"inconclusive: 6.31 µM [inhibitor, single point]"
COc1ccc(Cn2c(-c3ccccc3C)nc3c(c(=O)c4ccccc4n3C)c2=O)cc1,–,"inconclusive: 0.316 µM [inhibitor, full curve, poor fit]"
O=C1OC(/C(=C\Nc2ccc(F)cc2F)[N+](=O)[O-])c2ccccc21 (stereo not given),–,"inconclusive: 35.5 µM [inhibitor, single point]"
Cc1ccc(-c2ccc(/C=N/NC(=S)Nc3ccccc3)o2)cc1[N+](=O)[O-],inactive: -16.8%,–
CCC(C)c1ccc(C(C)NC(=S)NC2CCCCC2)cc1 (stereo not given),–,"inconclusive: 3.55 µM [inhibitor, single point]"
N#C/C(=C/c1ccc(N2CCOCC2)o1)c1ccc(Cl)cc1,–,"inconclusive: 3.16 µM [inhibitor, full curve, poor fit]"
O=[N+]([O-])/C(C(Cl)=C(Cl)Cl)=C1\Nc2ccccc2O1,–,"inconclusive: 25.1 µM [inhibitor, single point]"
COCCOC(=O)C1=C(C)NC(=O)NC1c1ccc(-c2cc(Cl)ccc2Cl)o1 (stereo not given),–,"inconclusive: 17.8 µM [inhibitor, partial curve, poor fit]"
CC(C)(C)NC(=O)C(c1ccc(-c2ccccc2)cc1)N(C[C@H]1CC[C@@H]([C@@H]2CC[C@H](CO)O2)O1)C(=O)c1ccccc1F (stereo not given in full),inactive: -3.99%,–

# Source: PubChem BioAssay AID602313 (National Center for Advancing Translational Sciences (NCATS), 2012)
